Reference: article doi:10.1101/2025.07.07.663440
Results are given in words; binding and its absence hold for the method and conditions named. In cells and extracts the contact can be indirect. These calls come from enrichment with a bait or labelling near it, and not all partners need be listed.

By UniProt entry, the sequences of proteins in these tests, tags left out.
UniProt Q13263: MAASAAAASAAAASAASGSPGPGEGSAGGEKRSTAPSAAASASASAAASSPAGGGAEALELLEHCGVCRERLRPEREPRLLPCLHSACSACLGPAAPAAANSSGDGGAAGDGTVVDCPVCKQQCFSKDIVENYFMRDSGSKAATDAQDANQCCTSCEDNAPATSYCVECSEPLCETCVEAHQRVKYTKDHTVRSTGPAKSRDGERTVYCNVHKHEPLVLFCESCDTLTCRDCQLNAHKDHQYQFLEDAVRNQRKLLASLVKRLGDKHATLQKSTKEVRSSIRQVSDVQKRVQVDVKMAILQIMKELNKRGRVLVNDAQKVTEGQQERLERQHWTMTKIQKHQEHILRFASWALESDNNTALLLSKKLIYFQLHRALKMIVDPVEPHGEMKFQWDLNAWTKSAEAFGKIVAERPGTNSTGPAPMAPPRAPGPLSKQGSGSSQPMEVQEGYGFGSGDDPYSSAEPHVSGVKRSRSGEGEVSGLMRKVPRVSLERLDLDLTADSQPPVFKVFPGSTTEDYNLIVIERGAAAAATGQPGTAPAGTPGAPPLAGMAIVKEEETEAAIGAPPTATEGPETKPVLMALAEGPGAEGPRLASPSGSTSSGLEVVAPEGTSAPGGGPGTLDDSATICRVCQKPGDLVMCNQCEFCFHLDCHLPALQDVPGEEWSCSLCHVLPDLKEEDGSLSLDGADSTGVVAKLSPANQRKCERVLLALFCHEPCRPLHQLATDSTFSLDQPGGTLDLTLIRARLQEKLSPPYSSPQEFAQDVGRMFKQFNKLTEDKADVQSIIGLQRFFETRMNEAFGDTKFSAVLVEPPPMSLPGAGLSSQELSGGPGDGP

Molecular target: PRPF8, endogenous (human (endogenous in HEK293T)) (UniProt Q6P2Q9)
Assay: affinity purification with mass spectrometry

Tripartite motif-containing 28 protein (TRIM28), endogenous, non-phosphorylated state (from UniProt Q13263 1-835)
binding: binds
